Reference: PubChem BioAssay (NCATS)
For some assays here: The hits were mostly taken out for another list; the other results follow. Results filed as inconclusive are left out. Only a part is listed here, and it is no random draw. Activity calls are given as the source filed them. Calls come from the whole dose curve; as a rule, active = well fitted inhibition curve with a large enough effect; inconclusive = small, poorly fitted or top-dose-only effect; inactive = flat fitted curve, though single readings scatter.

Experiments:
Test in all cases: qHTS profiling for inhibitors of Plasmodium falciparum proliferation (AID 504749); note: nearly all actives have a fitted effect of over 60% in size;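 for activity, negative = inhibition: 0% = DMSO vehicle and full inhibition = artemisinin control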
[1] = test system: C2A; settings: P. falciparum in erythrocytes, SYBR Green DNA, 72 h; at 28.7 µM (top of the series)
How it was run: (§1)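 Infected RBCs, 0.3% parasitemia/2.5% Hct final; cpd 72 h, 37 C, 5% CO2; lysis buffer with saponin/triton/SYBR Green I, o/n RT dark; FI 485/535; norm. to artemisinin (0.29 uM) and DMSO.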

[2] = test system: CP185; settings: P. falciparum in erythrocytes, SYBR Green DNA, 72 h; at 28.7 µM (top of the series)
How it was run: as §1

[3] = test system: CP191; settings: P. falciparum in erythrocytes, SYBR Green DNA, 72 h; at 28.7 µM (top of the series)
How it was run: as §1

[4] = test system: CP192; settings: P. falciparum in erythrocytes, SYBR Green DNA, 72 h
How it was run: as §1

[5] = test system: CP217; settings: P. falciparum in erythrocytes, SYBR Green DNA, 72 h; at 28.7 µM (top of the series)
How it was run: as §1

[6] = test system: CP237; settings: P. falciparum in erythrocytes, SYBR Green DNA, 72 h; at 28.7 µM (top of the series)
How it was run: as §1

[7] = test system: CP238; settings: P. falciparum in erythrocytes, SYBR Green DNA, 72 h; at 28.7 µM (top of the series)
How it was run: as §1

[8] = test system: CP247; settings: P. falciparum in erythrocytes, SYBR Green DNA, 72 h; at 28.7 µM (top of the series)
How it was run: as §1

[9] = test system: CP250; settings: P. falciparum in erythrocytes, SYBR Green DNA, 72 h; at 28.7 µM (top of the series)
How it was run: as §1

[10] = test system: CP252; settings: P. falciparum in erythrocytes, SYBR Green DNA, 72 h; at 28.7 µM (top of the series)
How it was run: as §1

[11] = test system: CP256; settings: P. falciparum in erythrocytes, SYBR Green DNA, 72 h; at 28.7 µM (top of the series)
How it was run: as §1

[12] = test system: CP260; settings: P. falciparum in erythrocytes, SYBR Green DNA, 72 h; at 28.7 µM (top of the series)
How it was run: as §1

[13] = test system: CP262; settings: P. falciparum in erythrocytes, SYBR Green DNA, 72 h; at 28.7 µM (top of the series)
How it was run: as §1

[14] = test system: CP265; settings: P. falciparum in erythrocytes, SYBR Green DNA, 72 h; at 28.7 µM (top of the series)
How it was run: as §1

[15] = test system: CP266; settings: P. falciparum in erythrocytes, SYBR Green DNA, 72 h
How it was run: as §1

[16] = test system: CP286; settings: P. falciparum in erythrocytes, SYBR Green DNA, 72 h; at 28.7 µM (top of the series)
How it was run: as §1

[17] = test system: CP335; settings: P. falciparum in erythrocytes, SYBR Green DNA, 72 h; at 28.7 µM (top of the series)
How it was run: as §1

[18] = test system: DFO2036; settings: P. falciparum in erythrocytes, SYBR Green DNA, 72 h; at 28.7 µM (top of the series)
How it was run: as §1

[19] = test system: Dd2; settings: P. falciparum in erythrocytes, SYBR Green DNA, 72 h; at 28.7 µM (top of the series)
How it was run: as §1

[20] = test system: ECU; settings: P. falciparum in erythrocytes, SYBR Green DNA, 72 h; at 28.7 µM (top of the series)
How it was run: as §1
Potency is the fitted concentration of half-maximal effect.

For `CC(C)(C)c1ccc(O)cc1`, which activity, negative = inhibition [1] is on record?
Its activity, negative = inhibition is inactive: -8.23%.

What about the activity, negative = inhibition [2] of the same molecule?
The activity, negative = inhibition was inactive: 2.73%.

What about the activity, negative = inhibition [3] of the same molecule?
Its activity, negative = inhibition is inactive: 1.2%.

And the Potency [4]?
The Potency was active: 12 µM.

What about the activity, negative = inhibition [5] of the same molecule?
Its activity, negative = inhibition is inactive: 8.43%.

What about the activity, negative = inhibition [6] of the same molecule?
Its activity, negative = inhibition is inactive: -1.84%.

And the activity, negative = inhibition [7]?
Its activity, negative = inhibition is inactive: 3.98%.

And the activity, negative = inhibition [8]?
The activity, negative = inhibition was inactive: -8.92%.

And the activity, negative = inhibition [9]?
The activity, negative = inhibition was inactive: 5.4%.

And the activity, negative = inhibition [10]?
Its activity, negative = inhibition is inactive: 2.48%.

And the activity, negative = inhibition [11]?
Its activity, negative = inhibition is inactive: 9.24%.

And the activity, negative = inhibition [12]?
Its activity, negative = inhibition is inactive: -6.32%.

What about the activity, negative = inhibition [13] of the same molecule?
The activity, negative = inhibition was inactive: 0%.

What about the activity, negative = inhibition [14] of the same molecule?
The activity, negative = inhibition was inactive: 2.54%.

And the Potency [15]?
The Potency was active: 19 µM.

And the activity, negative = inhibition [16]?
The activity, negative = inhibition was inactive: -2.51%.

And the activity, negative = inhibition [17]?
Its activity, negative = inhibition is inactive: -0.0698%.

And the activity, negative = inhibition [18]?
The activity, negative = inhibition was inactive: 1.87%.

What about the activity, negative = inhibition [19] of the same molecule?
Its activity, negative = inhibition is inactive: 5.48%.

And the activity, negative = inhibition [20]?
Its activity, negative = inhibition is inactive: 4.86%.
